Results taken from paper PMC6114981.
Results are given in words; binding and its absence hold for the method and conditions named. Binding seen in cells or lysates may run through a third protein. Some results given as binding are weak or reduced against the parent protein; the word gives no strength. For some of these results: Sequences can lack the tags named with a protein. Each block holds one molecule with its values, some of them ahead of it.

Amino acid sequences for entries named in this document (tags omitted).
UniProt Q01469: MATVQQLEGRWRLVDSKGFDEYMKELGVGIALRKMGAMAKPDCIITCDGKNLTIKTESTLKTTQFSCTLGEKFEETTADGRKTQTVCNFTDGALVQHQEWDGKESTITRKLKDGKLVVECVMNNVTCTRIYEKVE

Columns and labels:
[1] = molecular target: T1, GST-ERRα (estrogen-related receptor α) fusion protein, wild type (human) (UniProt P11474); test: pull-down; GST or GST-ERRα (wt, Δ300aa, Δ398aa) incubated with PC-3 whole cell lysates and glutathione sepharose overnight at 4°C; washed three times with 50 mM Tris-HCl pH 7.5, 150 mM NaCl, 0.05% Tween20; western blot for GST, FABP5 and PGC-1β; only the target purified
T1 sequence: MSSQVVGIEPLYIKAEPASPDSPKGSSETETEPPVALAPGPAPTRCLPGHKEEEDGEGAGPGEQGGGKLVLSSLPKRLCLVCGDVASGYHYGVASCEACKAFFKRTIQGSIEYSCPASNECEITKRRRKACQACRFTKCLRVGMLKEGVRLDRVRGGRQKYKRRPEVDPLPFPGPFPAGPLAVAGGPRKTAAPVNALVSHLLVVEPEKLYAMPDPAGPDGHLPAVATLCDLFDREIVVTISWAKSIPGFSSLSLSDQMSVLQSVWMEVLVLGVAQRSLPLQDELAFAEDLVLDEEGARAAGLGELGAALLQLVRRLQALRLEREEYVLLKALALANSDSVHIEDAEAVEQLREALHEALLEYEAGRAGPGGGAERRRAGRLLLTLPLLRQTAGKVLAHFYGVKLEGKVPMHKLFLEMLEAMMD

3×FLAG-FABP5 (human) = 3×FLAG-FABP5 (human) (UniProt Q01469); test: co-IP; lysates (50 mM Tris-HCl, 150 mM NaCl, 1 mM EDTA, 1% NP-40) of 293T cells transfected with pCI-neo or pCI-neo/3×FLAG-FABP5, agarose-conjugated anti-DDDDK-tag overnight at 4°C; western blot

Molecule: fatty acid-binding protein 5 (FABP5), endogenous in PC-3 cells (from UniProt Q01469 1-135)
- binding [1]: binds

B1: estrogen-related receptor α (ERRα), endogenous in 293T cells (protein, UniProt P11474 1-423)
chain: T1 sequence
- binding (3×FLAG-FABP5 (human)): binds

More lines, now with the values ahead:

- binding [1]: binds
B2: peroxisome proliferator-activated receptor gamma coactivator 1-beta (PGC-1β), endogenous in PC-3 cells (protein, UniProt Q86YN6 1-1023)
chain: MAGNDCGALLDEELSSFFLNYLADTQGGGSGEEQLYADFPELDLSQLDASDFDSATCFGELQWCPENSETEPNQYSPDDSELFQIDSENEALLAELTKTLDDIPEDDVGLAAFPALDGGDALSCTSASPAPSSAPPSPAPEKPSAPAPEVDELSLLQKLLLATSYPTSSSDTQKEGTAWRQAGLRSKSQRPCVKADSTQDKKAPMMQSQSRSCTELHKHLTSAQCCLQDRGLQPPCLQSPRLPAKEDKEPGEDCPSPQPAPASPRDSLALGRADPGAPVSQEDMQAMVQLIRYMHTYCLPQRKLPPQTPEPLPKACSNPSQQVRSRPWSRHHSKASWAEFSILRELLAQDVLCDVSKPYRLATPVYASLTPRSRPRPPKDSQASPGRPSSVEEVRIAASPKSTGPRPSLRPLRLEVKREVRRPARLQQQEEEDEEEEEEEEEEEKEEEEEWGRKRPGRGLPWTKLGRKLESSVCPVRRSRRLNPELGPWLTFADEPLVPSEPQGALPSLCLAPKAYDVERELGSPTDEDSGQDQQLLRGPQIPALESPCESGCGDMDEDPSCPQLPPRDSPRCLMLALSQSDPTFGKKSFEQTLTVELCGTAGLTPPTTPPYKPTEEDPFKPDIKHSLGKEIALSLPSPEGLSLKATPGAAHKLPKKHPERSELLSHLRHATAQPASQAGQKRPFSCSFGDHDYCQVLRPEGVLQRKVLRSWEPSGVHLEDWPQQGAPWAEAQAPGREEDRSCDAGAPPKDSTLLRDHEIRASLTKHFGLLETALEEEDLASCKSPEYDTVFEDSSSSSGESSFLPEEEEEEGEEEEEDDEEEDSGVSPTCSDHCPYQSPPSKANRQLCSRSRSSSGSSPCHSWSPATRRNFRCESRGPCSDRTPSIRHARKRREKAIGEGRVVYIQNLSSDMSSRELKRRFEVFGEIEECEVLTRNRRGEKYGFITYRCSEHAALSLTKGAALRKRNEPSFQLSYGGLRHFCWPRYTDYDSNSEEALPASGKSKYEAMDFDSLLKEAQQSLH

- binding (3×FLAG-FABP5 (human)): binds
B3: peroxisome proliferator-activated receptor gamma coactivator 1-beta (PGC-1β), in 293T cells (protein, UniProt Q86YN6 1-1023)
chain: B2 chain
